Compound in the assay: c1cn2cc(-c3ccc4cn[nH]c4c3)nc(Nc3ccc(N4CCOCC4)cc3)c2n1 [entospletinib]
As to the kind of experiment: log2 fold change, soluble protein after heating vs DMSO (PISA); higher = thermal stabilisation; K562 cells, 10 uM, 30 min; active = over 0.2 and 3.5 SD of the protein, either way, in both replicates (recomputed). In short, it runs like this: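 Soluble protein was defined as the supernatant after 21,000xg for 90 min. It came from K562 cells at 2×10^6 cells/mL given 10 μM compound for 30 min, heated in aliquots for 3 min across 48°C-58°C, pooled, and extracted in PBS with 0.5% NP-40 at 4°C, and was quantified by TMTpro 16plex LC-MS/MS with equalised channel sums. Thermal stability against control samples, from duplicates, is reported as log2 fold change.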

Amino acid sequences for entries named in this document (tags omitted). A change or cut given only in a name is not applied to a line headed by its entry.
UniProt Q8NEY1: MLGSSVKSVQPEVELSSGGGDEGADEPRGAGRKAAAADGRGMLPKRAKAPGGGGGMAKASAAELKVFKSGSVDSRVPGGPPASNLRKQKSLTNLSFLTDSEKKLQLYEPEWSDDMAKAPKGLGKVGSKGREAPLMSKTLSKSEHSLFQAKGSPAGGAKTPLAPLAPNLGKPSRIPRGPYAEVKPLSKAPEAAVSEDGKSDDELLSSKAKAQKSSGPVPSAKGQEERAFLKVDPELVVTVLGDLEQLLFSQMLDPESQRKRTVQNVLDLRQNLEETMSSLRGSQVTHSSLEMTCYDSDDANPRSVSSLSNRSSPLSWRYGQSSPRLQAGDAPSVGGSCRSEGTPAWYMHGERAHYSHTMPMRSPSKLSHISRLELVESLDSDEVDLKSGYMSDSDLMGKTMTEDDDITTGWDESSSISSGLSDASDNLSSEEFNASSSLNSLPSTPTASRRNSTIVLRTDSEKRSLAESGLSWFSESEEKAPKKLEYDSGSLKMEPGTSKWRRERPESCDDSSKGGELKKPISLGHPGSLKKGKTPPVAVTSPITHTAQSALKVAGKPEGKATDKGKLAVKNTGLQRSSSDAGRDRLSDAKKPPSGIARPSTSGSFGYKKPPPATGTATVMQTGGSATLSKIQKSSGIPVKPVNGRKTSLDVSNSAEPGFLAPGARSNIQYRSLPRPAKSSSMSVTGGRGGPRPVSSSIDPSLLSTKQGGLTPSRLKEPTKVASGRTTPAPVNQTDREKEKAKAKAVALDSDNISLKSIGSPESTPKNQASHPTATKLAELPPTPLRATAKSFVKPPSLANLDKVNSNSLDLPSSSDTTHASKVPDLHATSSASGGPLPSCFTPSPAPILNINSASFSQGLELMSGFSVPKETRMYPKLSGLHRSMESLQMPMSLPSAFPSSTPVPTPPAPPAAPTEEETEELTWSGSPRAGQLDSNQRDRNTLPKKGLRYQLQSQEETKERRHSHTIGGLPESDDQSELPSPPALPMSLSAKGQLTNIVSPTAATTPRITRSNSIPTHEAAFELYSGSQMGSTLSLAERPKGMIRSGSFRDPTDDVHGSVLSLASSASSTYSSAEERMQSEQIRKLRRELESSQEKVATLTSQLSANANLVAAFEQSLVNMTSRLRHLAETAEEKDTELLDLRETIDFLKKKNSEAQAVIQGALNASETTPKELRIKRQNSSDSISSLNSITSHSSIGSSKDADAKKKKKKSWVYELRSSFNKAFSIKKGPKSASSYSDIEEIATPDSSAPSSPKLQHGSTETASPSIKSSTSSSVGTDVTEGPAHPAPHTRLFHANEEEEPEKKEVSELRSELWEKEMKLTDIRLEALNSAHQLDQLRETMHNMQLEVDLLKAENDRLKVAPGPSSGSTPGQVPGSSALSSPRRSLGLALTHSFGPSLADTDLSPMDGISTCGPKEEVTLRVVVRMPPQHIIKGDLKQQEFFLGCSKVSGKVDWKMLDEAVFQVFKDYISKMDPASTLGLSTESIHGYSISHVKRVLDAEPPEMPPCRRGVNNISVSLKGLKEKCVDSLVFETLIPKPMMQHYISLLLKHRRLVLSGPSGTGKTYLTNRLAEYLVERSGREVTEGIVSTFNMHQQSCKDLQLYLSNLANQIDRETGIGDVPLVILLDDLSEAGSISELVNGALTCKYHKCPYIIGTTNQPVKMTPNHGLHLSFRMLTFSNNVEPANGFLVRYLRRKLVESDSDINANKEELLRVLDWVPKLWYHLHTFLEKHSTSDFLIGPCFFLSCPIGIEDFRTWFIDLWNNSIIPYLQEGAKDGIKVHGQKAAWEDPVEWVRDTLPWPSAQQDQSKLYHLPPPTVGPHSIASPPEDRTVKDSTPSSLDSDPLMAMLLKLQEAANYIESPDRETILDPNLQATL
UniProt Q96HR8: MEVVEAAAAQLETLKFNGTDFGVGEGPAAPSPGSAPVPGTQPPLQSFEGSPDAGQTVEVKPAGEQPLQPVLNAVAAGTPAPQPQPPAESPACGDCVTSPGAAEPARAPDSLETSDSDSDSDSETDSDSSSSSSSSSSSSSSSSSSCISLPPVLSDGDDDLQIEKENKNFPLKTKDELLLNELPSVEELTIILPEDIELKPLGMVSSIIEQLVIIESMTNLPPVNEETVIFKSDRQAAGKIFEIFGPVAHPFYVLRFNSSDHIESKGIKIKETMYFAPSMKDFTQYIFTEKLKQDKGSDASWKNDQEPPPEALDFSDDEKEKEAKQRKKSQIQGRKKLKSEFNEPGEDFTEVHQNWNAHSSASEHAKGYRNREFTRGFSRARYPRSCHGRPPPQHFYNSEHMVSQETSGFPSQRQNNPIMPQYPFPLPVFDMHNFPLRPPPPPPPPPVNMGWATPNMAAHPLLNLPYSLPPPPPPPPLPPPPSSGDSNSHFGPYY
UniProt Q9P0J0, whole entry, looked up: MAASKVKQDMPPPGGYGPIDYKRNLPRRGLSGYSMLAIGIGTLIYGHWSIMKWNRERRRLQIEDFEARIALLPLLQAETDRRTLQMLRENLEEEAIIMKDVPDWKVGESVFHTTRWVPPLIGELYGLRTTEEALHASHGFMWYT
UniProt O43920, whole entry, looked up: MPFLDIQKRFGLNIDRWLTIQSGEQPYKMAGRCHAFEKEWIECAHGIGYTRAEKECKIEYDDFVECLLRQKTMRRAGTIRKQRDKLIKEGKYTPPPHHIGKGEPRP
UniProt P54802: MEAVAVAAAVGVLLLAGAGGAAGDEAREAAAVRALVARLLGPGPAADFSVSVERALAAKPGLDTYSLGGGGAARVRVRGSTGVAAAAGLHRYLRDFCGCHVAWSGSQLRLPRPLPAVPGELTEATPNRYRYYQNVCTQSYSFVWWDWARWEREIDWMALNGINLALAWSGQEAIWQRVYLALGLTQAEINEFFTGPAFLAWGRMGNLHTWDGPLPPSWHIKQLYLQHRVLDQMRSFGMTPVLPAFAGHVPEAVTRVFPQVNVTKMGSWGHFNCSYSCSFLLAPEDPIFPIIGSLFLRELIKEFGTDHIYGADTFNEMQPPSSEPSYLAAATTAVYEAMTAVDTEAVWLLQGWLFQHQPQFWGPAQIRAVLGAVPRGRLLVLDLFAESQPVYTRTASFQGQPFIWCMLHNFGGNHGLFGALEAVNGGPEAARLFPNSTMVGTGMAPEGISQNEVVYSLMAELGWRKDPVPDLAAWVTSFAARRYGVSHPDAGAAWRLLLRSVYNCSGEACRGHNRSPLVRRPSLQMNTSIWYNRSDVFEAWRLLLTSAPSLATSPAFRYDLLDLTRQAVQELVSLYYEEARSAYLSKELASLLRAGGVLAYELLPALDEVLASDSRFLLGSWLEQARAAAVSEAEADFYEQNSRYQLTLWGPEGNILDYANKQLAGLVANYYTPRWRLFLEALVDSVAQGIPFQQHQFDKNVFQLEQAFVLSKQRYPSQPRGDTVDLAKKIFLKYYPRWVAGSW
UniProt Q9Y375: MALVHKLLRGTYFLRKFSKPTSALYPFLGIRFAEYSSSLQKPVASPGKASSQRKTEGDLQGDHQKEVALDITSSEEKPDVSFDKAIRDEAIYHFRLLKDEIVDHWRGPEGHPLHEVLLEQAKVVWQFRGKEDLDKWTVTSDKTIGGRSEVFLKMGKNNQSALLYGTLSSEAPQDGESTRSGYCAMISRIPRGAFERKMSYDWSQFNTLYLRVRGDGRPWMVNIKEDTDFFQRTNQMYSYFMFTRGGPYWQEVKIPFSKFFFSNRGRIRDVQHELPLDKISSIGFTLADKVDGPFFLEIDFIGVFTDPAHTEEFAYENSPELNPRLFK
UniProt O95299, whole entry, looked up: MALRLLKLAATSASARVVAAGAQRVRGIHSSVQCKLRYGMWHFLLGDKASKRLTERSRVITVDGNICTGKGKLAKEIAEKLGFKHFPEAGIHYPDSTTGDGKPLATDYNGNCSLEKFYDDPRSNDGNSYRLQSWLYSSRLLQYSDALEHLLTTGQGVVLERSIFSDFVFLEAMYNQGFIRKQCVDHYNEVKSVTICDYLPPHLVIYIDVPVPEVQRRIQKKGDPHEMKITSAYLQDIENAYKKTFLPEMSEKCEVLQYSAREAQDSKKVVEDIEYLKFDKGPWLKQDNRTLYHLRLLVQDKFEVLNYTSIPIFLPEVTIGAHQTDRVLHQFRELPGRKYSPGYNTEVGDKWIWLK
UniProt O95139, whole entry, looked up: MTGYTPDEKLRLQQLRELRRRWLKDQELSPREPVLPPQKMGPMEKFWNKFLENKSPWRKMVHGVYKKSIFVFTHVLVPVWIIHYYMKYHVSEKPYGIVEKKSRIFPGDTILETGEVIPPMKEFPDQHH
UniProt Q02083: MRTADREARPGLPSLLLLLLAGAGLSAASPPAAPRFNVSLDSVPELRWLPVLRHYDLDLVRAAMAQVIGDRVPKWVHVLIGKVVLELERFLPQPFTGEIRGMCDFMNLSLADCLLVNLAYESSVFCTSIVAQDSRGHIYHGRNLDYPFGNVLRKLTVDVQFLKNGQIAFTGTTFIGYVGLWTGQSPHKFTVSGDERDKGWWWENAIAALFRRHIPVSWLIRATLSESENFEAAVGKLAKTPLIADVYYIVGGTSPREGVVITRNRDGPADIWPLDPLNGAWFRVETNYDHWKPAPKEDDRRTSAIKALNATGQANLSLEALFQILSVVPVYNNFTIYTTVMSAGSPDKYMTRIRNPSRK
UniProt Q13564: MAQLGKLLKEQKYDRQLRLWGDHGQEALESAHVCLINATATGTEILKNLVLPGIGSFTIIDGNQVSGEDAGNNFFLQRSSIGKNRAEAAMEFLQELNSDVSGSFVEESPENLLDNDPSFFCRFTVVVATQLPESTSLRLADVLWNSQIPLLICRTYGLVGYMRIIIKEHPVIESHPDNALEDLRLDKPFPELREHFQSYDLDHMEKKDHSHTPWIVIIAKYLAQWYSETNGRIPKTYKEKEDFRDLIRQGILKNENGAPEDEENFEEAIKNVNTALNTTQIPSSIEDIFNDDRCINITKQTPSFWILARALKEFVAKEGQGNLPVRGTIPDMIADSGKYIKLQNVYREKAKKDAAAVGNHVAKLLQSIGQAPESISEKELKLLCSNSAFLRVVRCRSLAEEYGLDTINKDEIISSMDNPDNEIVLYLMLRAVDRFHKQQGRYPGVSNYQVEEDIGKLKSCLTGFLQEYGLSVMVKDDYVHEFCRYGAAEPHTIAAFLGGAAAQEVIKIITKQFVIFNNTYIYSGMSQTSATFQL
UniProt Q15788: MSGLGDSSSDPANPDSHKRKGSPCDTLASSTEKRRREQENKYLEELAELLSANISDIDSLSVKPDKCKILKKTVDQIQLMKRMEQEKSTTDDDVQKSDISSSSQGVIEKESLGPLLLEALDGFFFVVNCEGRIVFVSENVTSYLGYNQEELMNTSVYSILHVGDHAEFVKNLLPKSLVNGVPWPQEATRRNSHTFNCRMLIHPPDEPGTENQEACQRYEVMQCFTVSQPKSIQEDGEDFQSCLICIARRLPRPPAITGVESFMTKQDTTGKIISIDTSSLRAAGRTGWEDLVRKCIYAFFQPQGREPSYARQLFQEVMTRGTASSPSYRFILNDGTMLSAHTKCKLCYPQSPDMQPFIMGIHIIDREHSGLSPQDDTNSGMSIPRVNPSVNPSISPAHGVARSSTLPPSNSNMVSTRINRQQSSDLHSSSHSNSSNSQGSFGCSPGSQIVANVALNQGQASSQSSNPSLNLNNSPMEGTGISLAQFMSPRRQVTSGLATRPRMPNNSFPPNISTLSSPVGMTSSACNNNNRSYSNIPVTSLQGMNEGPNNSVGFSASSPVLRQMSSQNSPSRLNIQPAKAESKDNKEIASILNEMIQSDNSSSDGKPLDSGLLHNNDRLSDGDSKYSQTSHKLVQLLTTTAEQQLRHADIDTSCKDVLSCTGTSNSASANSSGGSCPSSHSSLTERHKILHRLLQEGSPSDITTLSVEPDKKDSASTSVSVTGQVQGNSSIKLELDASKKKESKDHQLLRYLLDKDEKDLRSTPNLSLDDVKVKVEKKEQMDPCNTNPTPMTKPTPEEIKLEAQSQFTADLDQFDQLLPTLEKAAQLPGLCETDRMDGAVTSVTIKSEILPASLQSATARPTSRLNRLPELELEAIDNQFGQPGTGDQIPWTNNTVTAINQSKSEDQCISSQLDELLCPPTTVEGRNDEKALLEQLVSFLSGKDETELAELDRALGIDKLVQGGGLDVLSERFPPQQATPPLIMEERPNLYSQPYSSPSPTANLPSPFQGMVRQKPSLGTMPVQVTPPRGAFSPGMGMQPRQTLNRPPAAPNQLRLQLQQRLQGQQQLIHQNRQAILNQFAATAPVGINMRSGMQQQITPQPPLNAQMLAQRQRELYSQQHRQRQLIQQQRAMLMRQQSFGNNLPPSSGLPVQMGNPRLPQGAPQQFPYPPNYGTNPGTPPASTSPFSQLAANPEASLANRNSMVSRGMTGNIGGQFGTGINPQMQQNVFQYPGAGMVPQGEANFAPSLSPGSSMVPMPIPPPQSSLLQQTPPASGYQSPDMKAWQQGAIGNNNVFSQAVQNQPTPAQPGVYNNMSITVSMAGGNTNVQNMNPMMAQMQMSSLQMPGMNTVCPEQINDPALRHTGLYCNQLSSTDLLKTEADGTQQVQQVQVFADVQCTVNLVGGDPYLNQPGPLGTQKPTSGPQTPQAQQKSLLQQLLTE

For 35 targets, log2 fold change results are on record in the supplement of paper PMC10849652.

The list shows a part of the results.

NAXE (UniProt Q8NCW5): the log2 fold change was inactive: 0.004. As for NDUFA2 (UniProt O43678), the log2 fold change is inactive: 0.029. Then NDUFS6 (UniProt O75380), with inactive: 0.125. Then NCAPD3 (UniProt P42695), with inactive: -0.106. In the case of NAV1 (UniProt Q8NEY1), the log2 fold change is inactive: -0.008. For NAF1 (UniProt Q96HR8) the value was inactive: -0.011; for NDUFA13 (UniProt Q9P0J0), inactive: 0.008. For NDUFS5 (UniProt O43920) the value was inactive: 0.004; for NAGLU (UniProt P54802), inactive: 0.003; for NCALD (UniProt P61601), inactive: 0. Regarding NDUFAF1 (UniProt Q9Y375), the log2 fold change is inactive: -0.018. Then NDUFA10 (UniProt O95299), with inactive: 0.006. For the target NAP1L4 isoform 2 (UniProt Q99733), the log2 fold change was inactive: 0.012. Then NEB isoform 3 (UniProt P20929), with inactive: -0.03. For NAA35 (UniProt Q5VZE5), the log2 fold change is inactive: -0.023. For NDUFB6 (UniProt O95139) the value was inactive: -0.051; for NAAA (UniProt Q02083), inactive: -0.073; for NCDN isoform 3 (UniProt Q9UBB6), inactive: 0.073.

Consider NAGK isoform 2 (UniProt Q9UJ70), for which the log2 fold change is inactive: 0.001. For NDUFV1 (UniProt P49821), the log2 fold change is inactive: -0.016. As for NDUFAF4 (UniProt Q9P032), the log2 fold change is inactive: 0.025. For NAE1 (UniProt Q13564) the value was inactive: 0.012. Regarding NARS1 (UniProt O43776), the log2 fold change was inactive: 0.001.

Regarding NCAPG2 isoform 2 (UniProt Q86XI2), the log2 fold change was inactive: 0.069.

As for NAMPT (UniProt C9JF35), the log2 fold change is inactive: -0.142.

Turning to NAA16 (UniProt Q6N069), the log2 fold change was inactive: 0.004. For NAA15, A0A0B4J1W3 the value was inactive: -0.106.

Regarding NAA20 (UniProt P61599), the log2 fold change is inactive: 0.035.

Take NAA25 (UniProt Q14CX7): the log2 fold change was inactive: 0.012. Then NCOA1 (UniProt Q15788), with inactive: -0.052; and NDUFA5 (UniProt Q16718), with inactive: 0.071. As to NCCRP1 (UniProt Q6ZVX7), the log2 fold change was inactive: -0.072.

As for NDUFB5 (UniProt O43674), the log2 fold change was inactive: -0.018. Then NDUFS3 (UniProt O75489), with inactive: 0.027; and NADK2 (UniProt Q4G0N4), with inactive: -0.013.
